Measured values: PMC8559680
Results are given in words; binding and its absence hold for the method and conditions named. For some of these results: In cells and extracts the contact can be indirect. Some entries that bind do so weakly or less than the wild type. For some of these results: Sequences can lack the tags named with a protein.

Experiments:
[1] = target: T1, Fip1 (yeast) (UniProt P45976); experiment: pull-down; StrepII (SII) tag on Pfs2 as bait; polymerase module subunits co-expressed in Sf9 cells; clarified lysate on Streptactin resin, 4°C; eluate analysed by SDS-PAGE
T1 sequence: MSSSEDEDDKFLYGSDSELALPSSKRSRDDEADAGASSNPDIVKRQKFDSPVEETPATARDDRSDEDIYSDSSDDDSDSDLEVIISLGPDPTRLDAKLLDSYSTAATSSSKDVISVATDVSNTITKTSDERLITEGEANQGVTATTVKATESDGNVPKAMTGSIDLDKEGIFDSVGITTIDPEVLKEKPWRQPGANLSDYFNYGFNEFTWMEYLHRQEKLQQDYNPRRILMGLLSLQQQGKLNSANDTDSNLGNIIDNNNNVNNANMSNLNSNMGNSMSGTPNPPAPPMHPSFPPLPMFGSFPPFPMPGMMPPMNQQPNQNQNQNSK

[2] = target: T2, Fip1_(Δ110–180) (yeast) (UniProt P45976); experiment: as above
T2 sequence: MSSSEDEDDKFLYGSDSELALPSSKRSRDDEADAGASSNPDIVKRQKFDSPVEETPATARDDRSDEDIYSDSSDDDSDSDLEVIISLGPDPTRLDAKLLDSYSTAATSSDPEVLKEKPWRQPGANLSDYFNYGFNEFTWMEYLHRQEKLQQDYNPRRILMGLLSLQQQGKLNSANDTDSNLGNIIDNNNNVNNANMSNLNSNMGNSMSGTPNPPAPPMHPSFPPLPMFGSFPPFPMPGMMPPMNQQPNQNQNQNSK

[3] = target: T3, Fip1_(Δ1–60) (yeast) (UniProt P45976); experiment: as above
T3 sequence: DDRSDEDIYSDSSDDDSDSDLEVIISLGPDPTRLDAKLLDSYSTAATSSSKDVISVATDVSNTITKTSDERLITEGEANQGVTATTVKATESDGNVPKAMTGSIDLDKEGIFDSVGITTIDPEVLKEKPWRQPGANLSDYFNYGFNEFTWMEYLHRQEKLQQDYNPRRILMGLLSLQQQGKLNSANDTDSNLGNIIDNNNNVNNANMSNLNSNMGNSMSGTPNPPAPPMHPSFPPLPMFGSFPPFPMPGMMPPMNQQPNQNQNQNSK

[4] = target: T1, Fip1 (yeast); experiment: co-purification (StrepTactin affinity, anion exchange, size exclusion); StrepII tag on Ref2 as bait; Sf9 cells co-infected with two baculoviruses (nuclease and polymerase modules; phosphatase module); purified complex analysed by SDS-PAGE
[5] = target: T2, Fip1_(Δ110–180) (yeast); experiment: as above
[6] = target: CPF-Fip1_(226) (CPFΔFip1 with labelled Fip1_(226) bound) (yeast) (UniProt P45976); experiment: mass photometry; Refeyn One iSCAT; samples diluted to 100 nM in 50 mM HEPES (pH 7.4), 150 mM NaCl; both purified
[7] = target: T4, Fip1_(Puf3) (yeast | S. pombe) (UniProt P45976); experiment: SEC; three purified components mixed (Pap1; Cft1-Pfs2-SII-Yth1-Fip1 variant; nuclease-phosphatase module); Superose 6 Increase 3.2/300, CPF wash buffer; both purified
T4 sequence: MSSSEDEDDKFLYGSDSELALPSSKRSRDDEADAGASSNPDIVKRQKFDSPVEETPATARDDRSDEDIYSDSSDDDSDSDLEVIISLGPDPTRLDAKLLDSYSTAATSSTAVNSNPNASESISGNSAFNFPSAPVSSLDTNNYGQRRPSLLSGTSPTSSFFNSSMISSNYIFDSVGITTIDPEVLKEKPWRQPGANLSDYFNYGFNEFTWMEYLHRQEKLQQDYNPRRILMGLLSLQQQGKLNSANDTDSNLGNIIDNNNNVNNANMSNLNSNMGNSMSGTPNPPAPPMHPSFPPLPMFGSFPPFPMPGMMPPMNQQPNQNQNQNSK

[8] = target: T5, Fip1_(scramble) (yeast) (UniProt P45976); experiment: as above
T5 sequence: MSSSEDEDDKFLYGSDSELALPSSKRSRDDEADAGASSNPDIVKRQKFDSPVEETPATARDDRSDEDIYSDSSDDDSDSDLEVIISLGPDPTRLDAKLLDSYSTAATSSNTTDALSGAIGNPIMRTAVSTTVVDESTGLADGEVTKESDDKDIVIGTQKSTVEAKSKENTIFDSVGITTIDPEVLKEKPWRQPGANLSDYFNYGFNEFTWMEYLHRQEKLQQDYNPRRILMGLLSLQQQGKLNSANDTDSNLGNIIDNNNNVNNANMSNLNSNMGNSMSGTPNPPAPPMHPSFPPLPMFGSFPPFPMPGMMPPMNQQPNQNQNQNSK

[9] = target: T6, Fip1_(226) (Fip1 residues 1–226), purified from E. coli (yeast) (UniProt P45976); experiment: NMR titration; labelled Fip1_(226) with unlabelled Yth1ZF4, Pap1, or both together; chemical shift perturbations and line broadening (1H,15N HSQC; 13C-detect CON); 278 K, 50 mM HEPES (pH 7.4), 150 mM NaCl; both purified
T6 sequence: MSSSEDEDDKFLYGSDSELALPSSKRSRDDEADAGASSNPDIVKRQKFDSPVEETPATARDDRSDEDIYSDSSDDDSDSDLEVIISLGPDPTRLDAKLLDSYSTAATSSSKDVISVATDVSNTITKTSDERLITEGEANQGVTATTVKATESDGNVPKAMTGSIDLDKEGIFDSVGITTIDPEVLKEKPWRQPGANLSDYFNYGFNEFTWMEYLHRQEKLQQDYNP

[10] = target: CPF-Fip1_(226) (CPFΔFip1 with labelled Fip1_(226) bound) (yeast) (UniProt P45976); experiment: NMR titration; 11 µM 2H,13C,15N Fip1_(226) with 1.1-fold molar excess of unlabelled CPFΔFip1, then excess His-Pap1; BEST 1H,15N-TROSY and 15N-edited 1H diffusion; 950 MHz, 278 K, 50 mM HEPES (pH 7.4), 150 mM NaCl; both purified

Measured: binding

B1: Pap1 (poly(A) polymerase), co-expressed in Sf9 (enzyme, UniProt P29468 1-537)
chain: MSSQKVFGITGPVSTVGATAAENKLNDSLIQELKKEGSFETEQETANRVQVLKILQELAQRFVYEVSKKKNMSDGMARDAGGKIFTYGSYRLGVHGPGSDIDTLVVVPKHVTREDFFTVFDSLLRERKELDEIAPVPDAFVPIIKIKFSGISIDLICARLDQPQVPLSLTLSDKNLLRNLDEKDLRALNGTRVTDEILELVPKPNVFRIALRAIKLWAQRRAVYANIFGFPGGVAWAMLVARICQLYPNACSAVILNRFFIILSEWNWPQPVILKPIEDGPLQVRVWNPKIYAQDRSHRMPVITPAYPSMCATHNITESTKKVILQEFVRGVQITNDIFSNKKSWANLFEKNDFFFRYKFYLEITAYTRGSDEQHLKWSGLVESKVRLLVMKLEVLAGIKIAHPFTKPFESSYCCPTEDDYEMIQDKYGSHKTETALNALKLVTDENKEEESIKDAPKAYLSTMYIGLDFNIENKKEKVDIHIPCTEFVNLCRSFNEDYGDHKVFNLALRFVKGYDLPDEVFDENEKRPSKKSKRKN
binds: [1] | [2] | [3] | [4] | [5]

B2: His-Pap1, purified from E. coli (enzyme, UniProt P29468 1-537)
chain: B1 chain
binds: [6] | [7] | [8] | [9] | [10]
